{"source": "PubChem BioAssay AID1508588 (Peter MacCallum Cancer Centre, 2020)", "screen": "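Which gene losses make BRAF-mutant melanoma cells more responsive to vemurafenib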 (primary screen)", "system": "human WM266.4 melanoma cells (BRAF V600 mutant)", "reagents": "siRNA pool against human genes, 40 nM", "duration": "96 h from transfection to read-out", "treatment": "vemurafenib 300 nM (about IC25), added 48 h after transfection, for 48 h; comparison arm got DMSO vehicle only", "detection": "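Ratios to non-targeting siRNA for cell gain, counted as DAPI nuclei after minus before drug and averaged over two replicates, and for absorbance-read medium lactate per cell; both binned into fold-change classes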", "reading the numbers": "cell gain with vemurafenib: higher = more cell gain than with non-targeting siRNA; lactate per cell with vemurafenib: higher = more lactate made per cell", "active means": "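Enhancement is called by pairing each knock-down's vehicle-arm and drug-arm fold-change classes for viability or glycolysis; which class combinations qualify is not given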", "calls": "active = enhances vemurafenib effect; inactive = no enhancement seen", "note": "In all, the deposit lists about 18,000 reagents; shown is a random part of them. 790 of them (4.4%) were called active. 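Calls rest on a combination of fold-change classes in drug and vehicle arms, not all shown here.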"}
{"gene symbol": "CALCRL", "cell gain with vemurafenib": 0.69, "lactate per cell with vemurafenib": 0.48, "activity call": "inactive"}
{"gene symbol": "TBX1", "cell gain with vemurafenib": 0.84, "lactate per cell with vemurafenib": 0.74, "activity call": "inactive"}
{"gene symbol": "PPP1R21", "cell gain with vemurafenib": 0.89, "lactate per cell with vemurafenib": 0.73, "activity call": "inactive"}
{"gene symbol": "NPY2R", "cell gain with vemurafenib": 1.06, "lactate per cell with vemurafenib": 0.18, "activity call": "inactive"}
{"gene symbol": "RAB41", "cell gain with vemurafenib": 0.46, "lactate per cell with vemurafenib": 0.43, "activity call": "active"}
{"gene symbol": "FBXW7", "cell gain with vemurafenib": 0.12, "lactate per cell with vemurafenib": 0.98, "activity call": "inactive"}
{"gene symbol": "NFKBIA", "cell gain with vemurafenib": 0.37, "lactate per cell with vemurafenib": 0.86, "activity call": "inactive"}
{"gene symbol": "GMEB1", "cell gain with vemurafenib": -0.03, "lactate per cell with vemurafenib": 2.58, "activity call": "inactive"}
{"gene symbol": "METTL15", "cell gain with vemurafenib": 0.79, "lactate per cell with vemurafenib": 0.94, "activity call": "inactive"}
{"gene symbol": "NBL1", "cell gain with vemurafenib": 0.8, "lactate per cell with vemurafenib": 0.96, "activity call": "inactive"}
{"gene symbol": "IRF2BPL", "cell gain with vemurafenib": 0.77, "lactate per cell with vemurafenib": 0.8, "activity call": "inactive"}
{"gene symbol": "DHFR", "cell gain with vemurafenib": 0.36, "lactate per cell with vemurafenib": 0.84, "activity call": "inactive"}
{"gene symbol": "ZNF414", "cell gain with vemurafenib": 0.62, "lactate per cell with vemurafenib": 0.86, "activity call": "inactive"}
{"gene symbol": "ARSL", "cell gain with vemurafenib": 0.52, "lactate per cell with vemurafenib": 1.14, "activity call": "inactive"}
{"gene symbol": "SHC3", "cell gain with vemurafenib": 0.5, "lactate per cell with vemurafenib": 0.1, "activity call": "inactive"}
{"gene symbol": "SPATA9", "cell gain with vemurafenib": 0.51, "lactate per cell with vemurafenib": 0.33, "activity call": "inactive"}
{"gene symbol": "ETS1", "cell gain with vemurafenib": 0.6, "lactate per cell with vemurafenib": 1.15, "activity call": "inactive"}
{"gene symbol": "MTSS2", "cell gain with vemurafenib": 0.86, "lactate per cell with vemurafenib": 0.7, "activity call": "inactive"}
{"gene symbol": "CMTM3", "cell gain with vemurafenib": 0.24, "lactate per cell with vemurafenib": 1.87, "activity call": "inactive"}
{"gene symbol": "KCNIP4", "cell gain with vemurafenib": 0.25, "lactate per cell with vemurafenib": 1.17, "activity call": "inactive"}
{"gene symbol": "MOG", "cell gain with vemurafenib": 0.32, "lactate per cell with vemurafenib": 1.94, "activity call": "inactive"}
{"gene symbol": "GRHL2", "cell gain with vemurafenib": 0.74, "lactate per cell with vemurafenib": 0.89, "activity call": "inactive"}
{"gene symbol": "STEAP2", "cell gain with vemurafenib": 0.64, "lactate per cell with vemurafenib": 0.33, "activity call": "active"}
{"gene symbol": "SNTG2", "cell gain with vemurafenib": 1.03, "lactate per cell with vemurafenib": 0.76, "activity call": "inactive"}
{"gene symbol": "IGSF10", "cell gain with vemurafenib": 0.2, "lactate per cell with vemurafenib": 1.44, "activity call": "inactive"}
{"gene symbol": "IMPDH1", "cell gain with vemurafenib": 0.81, "lactate per cell with vemurafenib": 0.57, "activity call": "inactive"}
{"gene symbol": "ACCS", "cell gain with vemurafenib": 0.38, "lactate per cell with vemurafenib": 0.66, "activity call": "inactive"}
{"gene symbol": "FAIM", "cell gain with vemurafenib": 0.85, "lactate per cell with vemurafenib": 0.66, "activity call": "inactive"}
{"gene symbol": "ST7L", "cell gain with vemurafenib": 0.39, "lactate per cell with vemurafenib": 0.55, "activity call": "active"}
{"gene symbol": "ZCCHC8", "cell gain with vemurafenib": 0.85, "lactate per cell with vemurafenib": 0.84, "activity call": "inactive"}
{"gene symbol": "CDC42SE2", "cell gain with vemurafenib": 0.65, "lactate per cell with vemurafenib": 1.04, "activity call": "inactive"}
{"gene symbol": "LRP6", "cell gain with vemurafenib": 0.7, "lactate per cell with vemurafenib": 0.88, "activity call": "inactive"}
{"gene symbol": "NXPH4", "cell gain with vemurafenib": 0.54, "lactate per cell with vemurafenib": 1.6, "activity call": "inactive"}
{"gene symbol": "ALG10B", "cell gain with vemurafenib": 0.76, "lactate per cell with vemurafenib": 0.56, "activity call": "inactive"}
{"gene symbol": "ZFTRAF1", "cell gain with vemurafenib": 0.24, "lactate per cell with vemurafenib": 0.02, "activity call": "inactive"}
{"gene symbol": "FZD3", "cell gain with vemurafenib": 0.55, "lactate per cell with vemurafenib": 0.62, "activity call": "inactive"}
{"gene symbol": "ABHD13", "cell gain with vemurafenib": 0.41, "lactate per cell with vemurafenib": 0.93, "activity call": "inactive"}
{"gene symbol": "CDH3", "cell gain with vemurafenib": 0.91, "lactate per cell with vemurafenib": 1.18, "activity call": "inactive"}
{"gene symbol": "OR2J3", "cell gain with vemurafenib": 0.74, "lactate per cell with vemurafenib": 1.17, "activity call": "inactive"}
{"gene symbol": "HOXD13", "cell gain with vemurafenib": 0.92, "lactate per cell with vemurafenib": 1.24, "activity call": "inactive"}

An excerpt from above, limited to “cell gain with vemurafenib”.
ETS1	0.6
MTSS2	0.86
CMTM3	0.24
KCNIP4	0.25
